# Percent effect of library compounds

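Whole-parasite assay of Trypanosoma brucei over 72 hours; the read-out is not stated. Concentration: 30 µM. Direction is inferred from retests: higher values go with stronger inhibition. Values scatter widely below zero; nearly all retest evidence comes from the higher of the two concentrations used. About 64,000 compounds were tested under these conditions; 1.5% (about 940) showed 50% or more at least once.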

The filed quantity is “Percent Effect” (%). The controls that fix the scale are not given in the record; negative values are as filed. The compounds are a random part of those screened.

SMILES,percent effect
CCN(Cc1ccncc1)C1CCN(c2ccccc2)C1=O (stereo not given),-50.41
OCC(O)CSCc1nnc(-c2cccc(F)c2)o1 (stereo not given),-35.37
COCc1ncc(-c2nccn2CCn2cnnc2)cn1,-10.95
CCC(=O)N1CCCCC1c1nc(O)c2c(n1)CN(C(C)=O)CC2 (stereo not given),9.444
COc1ccc(OC)c(-n2cnnc2CCN)c1,8.935
CSC(C)(C)CNC(=O)NCC[S+]([O-])c1ccccc1F (stereo not given),-24.13
O=C(O)C(F)(F)F.[H][C@@]12CCCO[C@]1([H])[C@@H](OC)CN2CC1CC1,0.5934
O=C(O)C(F)(F)F.O=C(c1ccccc1)N1CCC[C@]2(C[C@@H](OCc3ccccn3)CO2)C1,-136.6
CN1CCN(c2cc(NC(=O)c3cnccn3)ncn2)CC1,7.561
Cc1cnc(CN(C)C2CCN(Cc3nc4c(F)cccc4[nH]3)C2)o1 (stereo not given),-29.57
CCCNC(=O)c1[nH]nc(C2CC2)c1Br,-56.14
CC(C)c1nc(C2CCCN2CC(=O)Nc2nncs2)no1 (stereo not given),-3.862
Cc1nc(N2CCOCC2)nc2c1CN(CC(=O)N(C)C)CC2,-22.79
Cc1cccn2cc(CNCc3cccc4c3OCCCO4)nc12,17.5
O=C(NCC1Cn2nnc(-c3ccoc3)c2CO1)c1ccc[nH]1 (stereo not given),29.37
CCCC(NC(=O)c1cncc(C)c1)c1nnn[nH]1 (stereo not given),-32.5
O=C(c1ccc(F)c(F)c1)N1CCCSCC1CN1CCCC1 (stereo not given),43.56
CSCc1noc(CN2CC(Cc3ccccc3)CC2=O)n1 (stereo not given),-0.8927
Cc1cc(C)nc(N2CCC(c3cc(CCO)[nH]n3)C2)n1 (stereo not given),-23.49
Cn1cc(-c2cnc(N3CCOCC3)nc2)cc1C(=O)O,13.61
CNC(=O)c1nc(CN2CCOC(C(F)(F)F)C2)no1 (stereo not given),-87.67
Cc1ccc(-c2ccc(=O)n(CC(=O)Nc3nccs3)n2)cc1,4.078
O=C(O)C(F)(F)F.O=C(O)C(F)(F)F.[H][C@]12C[C@H](CN(C)C(C)C)O[C@@]1([H])CN(Cc1ccco1)C2,-4.766
[H][C@]12CCN(C(=O)N3CCCC3)C[C@@]1([H])OCCN(S(C)(=O)=O)C2,-93.24
CCc1ncnc(N2CCOCC2C(N)=O)c1F (stereo not given),-17.5
CCC1COC2(CCN(C(=O)c3ccco3)CC2)C1 (stereo not given),-64.32
Cc1nn(CCNc2ncnc3c2NC(=O)CN3)c(C)c1Cl,-7.416
[H][C@@]12C[C@H](C)O[C@]1([H])CCN(C(=O)CCOC)C2,-305.8
CCn1cc(Cl)c(C(=O)NCCCN(C)C)n1,-3.832
Cc1cc(NC(=O)CCc2ccsc2)n(C)n1,-22.89
Cc1cccc(C(=O)N2CCCC(Cc3cncc4ccccc34)C2)n1 (stereo not given),19.94
O=C(NC1COC2(CCN(Cc3cccs3)CC2)C1)c1ccccn1.O=C(O)C(F)(F)F (stereo not given),-24.42
COC(=O)C1CN(Cc2ccn(-c3ccc(F)cc3)n2)CCO1 (stereo not given),-55.87
CN(C)C(=O)Cc1ccccc1NCc1nc(Cc2ccccc2)no1,-21.06
Cc1noc(C)c1CN(C)CC1CC(C2CCCCC2)=NO1 (stereo not given),-20.99
[H][C@@]12CN(Cc3cccnc3OC)C[C@]1([H])CN(c1ncccn1)C2,-22.89
Cc1csc(N2CCCN(C(=O)C(C)n3ccnc3)CC2)n1 (stereo not given),32.89
Cl.O=C(Nc1ccccc1F)C1=NOC2(CCNCC2)C1,-9.597
CCC(C)Oc1cc(C(=O)Nc2nc(C)ns2)ccn1 (stereo not given),-17.19
Cc1noc(C)c1C(=O)N1CCCN(Cc2nccn2C(C)C)CC1,3.978
Cc1cccc(-n2ncc(C(=O)N3CCn4c(C)nnc4C3)c2C)c1,-1.371
CCOc1ccc(S(=O)(=O)NC(=O)CC2CCCO2)cc1 (stereo not given),-50.31
O=C(O)C(F)(F)F.[H][C@]12CCN(Cc3ccc(CC)o3)C[C@@]1([H])OCCN(S(C)(=O)=O)C2,-34.36
CCN1CC(COC(=O)c2cccc(Br)c2)CC1=O (stereo not given),-6.049
O=C(C1CC1)N1C[C@@H](F)[C@@H](OCc2nc3ccccc3o2)C1,-6.212
Cc1ccsc1C1CCCCCN1Cc1cn(C)nc1C (stereo not given),-0.3782
Cc1cc(N2CCN(C(=O)CCc3scnc3C)CC2)cc(C)n1,-27.72
CN(CC(=O)N1CCC(Cc2cccc(C(N)=O)c2)C1)C1CCCC1 (stereo not given),-12.68
O=C(NC[C@]1(O)CCN(Cc2ccsc2)C[C@H]1O)c1c[nH]cn1,-17.34
Cc1cnc(CN(C)C2CCCN(Cc3noc(C4CC4)n3)C2)cn1 (stereo not given),-33.32
CN(C)c1cc(C(=O)NCCc2nnc(-c3ccco3)[nH]2)ccn1,36.74
CC(=O)N1CCOCC2(CCCNC2)C1 (stereo not given),-23.47
O=C(NCCNc1cnccn1)N1CC=C(c2ccc(O)cc2)CC1,-36.77
COc1ccc(CN2CC(O)CN(C(=O)CC(C)C)CC2=O)cc1 (stereo not given),-31.21
COc1cc(-c2nc3c([nH]2)CCCNC3=O)cc(OC)c1OC,-56.65
O=C(c1cc(-n2cccn2)ccn1)N1CCOc2ccncc21,-28.38
CCc1ccc2nc(C)cc(C(=O)NC[C@@H]3CCNC[C@H]3O)c2c1,-34.49
O=C(O)C(F)(F)F.O=C(O)C(F)(F)F.c1ccc(N2CC[C@H](OCC3CC3)[C@@H]2Cc2cccnc2)nc1,-7.021
Cc1cc(C)n(CC2CCCN2C(=O)CCCNc2ncccn2)n1 (stereo not given),-23.12
CCSc1nc(N)c(NC(=O)c2ccc(C)cc2)c(=O)[nH]1,-27.37
COc1cccc2cc(CNCc3ccnc(N4CCOCC4)c3)oc12,-4.586
CN(C)CCN1CCCC12CCN(C(=O)c1ccco1)CC2.O=C(O)C(F)(F)F.O=C(O)C(F)(F)F,-28.73
CCc1noc(C(C)N2CCN(Cc3cnc(C)cn3)CC2)n1 (stereo not given),-18.28

The last 6 entries again:

* O=C(O)C(F)(F)F.O=C(O)C(F)(F)F.c1ccc(N2CC[C@H](OCC3CC3)[C@@H]2Cc2cccnc2)nc1 | -7.021%
* Cc1cc(C)n(CC2CCCN2C(=O)CCCNc2ncccn2)n1 (stereo not given) | -23.12%
* CCSc1nc(N)c(NC(=O)c2ccc(C)cc2)c(=O)[nH]1 | -27.37%
* COc1cccc2cc(CNCc3ccnc(N4CCOCC4)c3)oc12 | -4.586%
* CN(C)CCN1CCCC12CCN(C(=O)c1ccco1)CC2.O=C(O)C(F)(F)F.O=C(O)C(F)(F)F | -28.73%
* CCc1noc(C(C)N2CCN(Cc3cnc(C)cn3)CC2)n1 (stereo not given) | -18.28%

Data taken from ChEMBL document CHEMBL3988442, “University of Dundee, Small-Polar-MMV Screening Library” (2021).